This experiment concerns Escherichia coli. Kind of experiment: Antimicrobial activity against Escherichia coli ATCC 25922 at 0.1 mg/disk by disk diffusion assay. It is filed as functional.

Here are results for 1 compound from ChEMBL document CHEMBL1151628, “Antibacterial constituents of the diatom Navicula delognei” (1984).

Take `CC1(C)S[C@@H]2[C@H](NC(=O)[C@H](N)c3ccccc3)C(=O)N2[C@H]1C(=O)O` [AMPICILLIN]: the “inhibition zone (IZ)” value is above 4 mm.
